From PubChem BioAssay AID493014 (National Center for Advancing Translational Sciences (NCATS), 2011)
Hit rate of the full screen: of about 340,000 compounds, about 170 (0.05%) were called active. Inconclusive means that the source gave no clear call. Such entries were picked first, then a sample of the others. The call rests on the fitted dose curve; in most records, active means well fitted inhibition curve with a large enough effect in the signal ratio, with a control signal flat (not every such curve was filed as active); inconclusive means small, poorly fitted or top-dose-only effect, or effect the other way, or a change in a side signal; inactive means flat fitted curve, though single readings scatter; the % refers to the signal ratio. Potencies beside an inconclusive call are fits to weak or partial responses and may not hold up.

Test: qHTS Assay to Find Inhibitors of Chronic Active B-Cell Receptor Signaling;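 on activity change, negative = inhibition: plate controls were basal doxycycline-induced cells for no effect and cells given 10 µM MG132 for full effect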
Details: ABC-DLBCL IkBa-CBG/CBR reporter, luminescence ratio (green luciferase fused to IkBa over red control in TMD8 lymphoma cells), 4 h; activity change, negative = inhibition: at 46.1 µM (top of the series)
How it was run: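 TMD8 human ABC-DLBCL cells with doxycycline-inducible IκBα–green luciferase fusion and unfused red luciferase, in 0.5% FBS medium; compounds up to 46 uM, 4 h at 37C. Green/red luminescence ratio, filter-overlap corrected, fitted to concentration-response curves.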
Potency means the concentration at half of the fitted maximal effect.

Row | SMILES | Potency | activity change, negative = inhibition
1 | CCCCC(=O)Nc1cc(OC)c(NC(=S)NC)cc1OC | inconclusive: 10 µM [falling, partial curve, poor fit] | 
2 | O=C(NCC(c1ccco1)N1CCCC1)c1cccc(S(=O)(=O)Nc2ccc(Br)cc2)c1 (stereo not given) |  | inconclusive: 1.21%
3 | Cc1cc(C2=NNC(=Nc3ccccc3)SC2)c(C)n1C |  | inconclusive: 1.24%
4 | CCN(C(=O)COC(=O)c1oc2ccc(OC)cc2c1C)C1CCS(=O)(=O)C1 (stereo not given) | inconclusive: 18.4 µM [falling, partial curve] | 
5 | CN(CC(=O)Nc1ccccc1C(F)(F)F)C(=O)CCc1nc2sc3c(c2c(=O)[nH]1)CCCC3 |  | inconclusive: 2.45%
6 | CCOC(=O)N1CCN(C(=O)c2ccc3c(c2)N=C(CC)c2cc(C)ccc2S3)CC1 |  | inactive
7 | CCN1CCN(c2cc(C)c3cc(NC(=O)CCC(=O)N4CCN(c5ccccc5OC)CC4)ccc3n2)CC1 |  | inactive
8 | COc1cc(CC(=O)OCC(=O)c2c[nH]c3ccccc23)cc(OC)c1OC | inconclusive: 20.6 µM [falling, partial curve, poor fit] | 
9 | COc1ccc(C/C(=N\O)c2ccc(OC)cc2)cc1 |  | inactive
10 | COC(=O)c1c(NC(=O)COC(=O)[C@@H](NS(=O)(=O)c2ccc(C)cc2)C(C)C)sc2c1CCC2 |  | inconclusive: -1%
11 | Cc1cc(C)cc(C(=O)NC(CC(N)=O)c2ccc(N3CCN(C)CC3)c([N+](=O)[O-])c2)c1 (stereo not given) | inconclusive: 3.16 µM [falling, single point] | 
12 | CC(C)(C)C(=O)Nc1nnc(-c2ccncc2)o1 |  | inactive
13 | COc1cccc(C(=O)Oc2c(Br)cc(Br)cc2/C=N/NC(=O)c2cc(C)[nH]n2)c1 | inconclusive: 3.16 µM [falling, full curve, poor fit] | 
14 | Oc1cccc(NC(=S)N=Nc2c(O)[nH]c3ccc(Br)cc23)c1 |  | inconclusive: -67.4%
15 | O=C(CCCC(=O)N(c1ccc(F)cc1)C(C(=O)NC1CCCC1)c1ccc(O)cc1)Nc1ccccn1 (stereo not given) |  | inconclusive: -7.92%
16 | O=C(/C=C/c1ccccc1)C1=C(O)C(=O)N(CCO)C1c1ccccc1[N+](=O)[O-] (stereo not given) |  | inactive
17 | COc1ccccc1S(=O)Cc1ccc(C(=O)NCc2ccccc2Cl)o1 (stereo not given) | inconclusive: 29.1 µM [falling, single point] | 
18 | O=C1CC(SCc2nc3ccccc3[nH]2)C(=O)N1c1cccc(Cl)c1 (stereo not given) |  | inactive
19 | O=C(Nc1cc(S(=O)(=O)N2CCOCC2)ccc1Cl)C1CCC1 |  | inconclusive: -3.45%
20 | c1ccc(-c2cn3cccnc3n2)cc1 |  | inconclusive: 13.5%
21 | COc1ccc(N=Cc2c(O)c3ccccc3n2C(C)=O)cc1 | inconclusive: 15.8 µM [falling, partial curve] | 
22 | O=C(c1c(F)cccc1F)N1CCN(CCOc2ccccc2)CC1 |  | inactive
23 | COc1ccc(-c2nn(-c3ccccc3)cc2/C=N/N2C(=O)CSC2=S)cc1 |  | inconclusive: 21.2%
24 | CCc1nc(SCC(=O)Nc2cc(OC)ccc2OC)c2c(C)c(C)sc2n1 |  | inconclusive: 0.604%
25 | CCCCc1nnc(NC(=O)CCS(=O)(=O)c2ccc(C)cc2)s1 | inconclusive: 10.3 µM [falling, partial curve] | 

Three compounds from above, ordered by molecular weight, largest number first:
Row | SMILES | Potency | activity change, negative = inhibition
15 | O=C(CCCC(=O)N(c1ccc(F)cc1)C(C(=O)NC1CCCC1)c1ccc(O)cc1)Nc1ccccn1 (stereo not given) |  | inconclusive: -7.92%
16 | O=C(/C=C/c1ccccc1)C1=C(O)C(=O)N(CCO)C1c1ccccc1[N+](=O)[O-] (stereo not given) |  | inactive
1 | CCCCC(=O)Nc1cc(OC)c(NC(=S)NC)cc1OC | inconclusive: 10 µM [falling, partial curve, poor fit] | 

More entries follow.

Row | SMILES | Potency | activity change, negative = inhibition
26 | O=S(=O)(Nc1nc2ccccc2s1)c1ccc(Cl)s1 |  | inconclusive: 16.9%
27 | COc1ccc(CC(=O)Oc2ccccc2C)cc1 |  | inconclusive: 11.1%
28 | Cc1ccc(C2=NN(C(=O)CCl)C(c3ccco3)C2)o1 (stereo not given) |  | inconclusive: -18%
29 | Cc1ccc(OCCn2cc(C=O)c3ccccc32)cc1 |  | inactive
30 | COc1cccc(N2C(=O)C(c3ccccc3)=C(c3nc4ccccc4s3)C2NC(C)=O)c1 (stereo not given) | inconclusive: 8.2 µM [falling, partial curve] | 
31 | CN1/C(=C\C(=O)c2cccnc2)C(C)(C)c2ccccc21 |  | inconclusive: 2.92%
32 | CCOc1cc(/C=N/NC(=O)CCn2nnc3ccccc32)ccc1O | inconclusive: 20 µM [falling, partial curve, poor fit] | 
33 | Cc1ccc(NC(=O)CSc2nc(=O)cc(N)n2CCc2ccccc2)cc1 |  | inconclusive: 0.0137%
34 | Cc1cc(O)ccc1NC(=S)NC(=O)c1cncc(Br)c1 | inconclusive: 11.2 µM [falling, partial curve, poor fit] | 
35 | CC(=O)SC1CC(=O)N(c2ccc(C(C)(C)C)cc2)C1=O (stereo not given) |  | inactive
36 | CC1(C)CC(=O)C(/C=N/n2cnc3ccccc3c2=O)=C(O)C1 |  | inconclusive: -1.83%
37 | COC(=O)Cn1c(=NC(=O)c2ccc(Cl)s2)sc2cc(C)ccc21 | inconclusive: 20.6 µM [falling, single point] | 
38 | Cc1ccc(/C=N/N2C(=O)c3ccccc3NC2c2ccc(C)cc2)cc1 (stereo not given) | inconclusive: 4.61 µM [falling, partial curve] | 
39 | CC(C)(C)c1ccc(S(=O)(=O)N2CCC(O)(c3ccc(Cl)cc3)CC2)cc1 |  | inconclusive: -0.0074%
40 | O=C(NCCC1=CCCCC1)C(=O)NCC(c1ccco1)N1CCN(c2ccccc2)CC1 (stereo not given) |  | inactive
41 | COc1ccccc1NS(=O)(=O)c1ccc(C(=O)N2CCN(c3ccccn3)CC2)cc1 |  | inactive
42 | Cc1c(C(=O)Nc2ccc(F)cc2F)sc2nc3n(c(=O)c12)N=C(c1ccccc1)CS3 |  | inactive
43 | CCOC(=O)c1c(NC(=O)C(=O)N/N=C/c2ccc(O)c(OC)c2)sc2c1CCCCC2 |  | inconclusive: 3.51%
44 | COC(=O)c1ccc(/C=N/NC(=S)NC(C)C)cc1 |  | inactive
45 | COc1ccc(/C=N/Nc2cc(C)nc3ccc(Br)cc23)cc1 |  | inconclusive: -0.922%
46 | CN1CCN(C(=O)c2cc(Cl)ccc2NC(=O)c2ccc(Cl)cc2Cl)CC1 |  | inactive
47 | COc1ccc(NC(=O)c2ccc(S(=O)(=O)N(C)c3ccccc3)cc2)cn1 |  | inconclusive: 1.62%
48 | CCCCOc1ccccc1NC(=O)c1scc2c1OCCO2 |  | inconclusive: 4.32%
49 | Cc1ccc2[nH]c(=O)c(COC(=O)C3CCCCC3)cc2c1 |  | inconclusive: 11.1%
50 | OC1CCCN(Cc2c3ccccc3cc3ccccc23)C1 (stereo not given) | inconclusive: 0.731 µM [falling, partial curve, poor fit] | 
